Experimental data: PubChem BioAssay AID1224830 (NIAID, 2016)
Here is a random part of about 18,000 reagents. Over the whole deposit, about 2,900 (16%) were called active. 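Calls are made per well; low scores hint the gene aids the LPS response, high scores that it dampens it.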 Repeated entries: four replicate wells of each siRNA pool. No sequences are given here.

- Aim: 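Host factors that control LPS-induced TNF expression in human macrophages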 (primary screen)
- Cells: human THP-1 monocytic leukaemia cells, TNF dual-luciferase reporter clone, PMA-differentiated to macrophage-like cells
- Reagent: siRNA pool against human genes, 50 nM
- Time to read-out: LPS for 4 h, given about 3 days after siRNA transfection
- Treatment: bacterial LPS (TLR4 ligand), 10 ng/ml
- Measured: 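Ratio of firefly to renilla light, scaled to the plate median and expressed as a robust z-score per replicate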
- Direction: TNF reporter robust z-score: higher = stronger TNF reporter response to LPS
- Rule for the call: 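a well is active when its z-score exceeds 2.8 or falls below -1.5; control wells carry no call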

| gene symbol | PubChem SID | TNF reporter robust z-score | activity call |
| --- | --- | --- | --- |
| MAMLD1 (mastermind like domain containing 1) | SID315453773 | 0.33 | inactive |
| MAMLD1 (mastermind like domain containing 1) | SID315453773 | -0.66 | inactive |
| MAMLD1 (mastermind like domain containing 1) | SID315453773 | 0.56 | inactive |
| MAMLD1 (mastermind like domain containing 1) | SID315453773 | 0.03 | inactive |
| STRN4 (striatin 4) | SID315456196 | 0.34 | inactive |
| STRN4 (striatin 4) | SID315456196 | 1 | inactive |
| STRN4 (striatin 4) | SID315456196 | 1.51 | inactive |
| STRN4 (striatin 4) | SID315456196 | 2.36 | inactive |
| ZNF543 (zinc finger protein 543) | SID315461665 | 0.55 | inactive |
| ZNF543 (zinc finger protein 543) | SID315461665 | 1.03 | inactive |
| ZNF543 (zinc finger protein 543) | SID315461665 | 0.22 | inactive |
| ZNF543 (zinc finger protein 543) | SID315461665 | 0.84 | inactive |
| KRTAP5-3 (keratin associated protein 5-3) | SID315464430 | -0.14 | inactive |
| KRTAP5-3 (keratin associated protein 5-3) | SID315464430 | -0.55 | inactive |
| KRTAP5-3 (keratin associated protein 5-3) | SID315464430 | -0.19 | inactive |
| KRTAP5-3 (keratin associated protein 5-3) | SID315464430 | -0.21 | inactive |
| TRNP1 (TMF1 regulated nuclear protein 1) | SID315464504 | -0.94 | inactive |
| TRNP1 (TMF1 regulated nuclear protein 1) | SID315464504 | -0.54 | inactive |
| TRNP1 (TMF1 regulated nuclear protein 1) | SID315464504 | -1.01 | inactive |
| TRNP1 (TMF1 regulated nuclear protein 1) | SID315464504 | -0.95 | inactive |
| ABCB1 (ATP binding cassette subfamily B member 1) | SID315450554 | -0.11 | inactive |
| ABCB1 (ATP binding cassette subfamily B member 1) | SID315450554 | 0.25 | inactive |
| ABCB1 (ATP binding cassette subfamily B member 1) | SID315450554 | 1.06 | inactive |
| ABCB1 (ATP binding cassette subfamily B member 1) | SID315450554 | 0.75 | inactive |

Next part; the last 5 above are carried over.
| gene symbol | PubChem SID | TNF reporter robust z-score | activity call |
| --- | --- | --- | --- |
| TRNP1 (TMF1 regulated nuclear protein 1) | SID315464504 | -0.95 | inactive |
| ABCB1 (ATP binding cassette subfamily B member 1) | SID315450554 | -0.11 | inactive |
| ABCB1 (ATP binding cassette subfamily B member 1) | SID315450554 | 0.25 | inactive |
| ABCB1 (ATP binding cassette subfamily B member 1) | SID315450554 | 1.06 | inactive |
| ABCB1 (ATP binding cassette subfamily B member 1) | SID315450554 | 0.75 | inactive |
| FILIP1L (filamin A interacting protein 1 like) | SID315454723 | 3.66 | active |
| FILIP1L (filamin A interacting protein 1 like) | SID315454723 | 2.77 | inactive |
| FILIP1L (filamin A interacting protein 1 like) | SID315454723 | 2.2 | inactive |
| FILIP1L (filamin A interacting protein 1 like) | SID315454723 | 3.23 | active |
| MT1X (metallothionein 1X) | SID315450059 | 2.58 | inactive |
| MT1X (metallothionein 1X) | SID315450059 | 2.84 | active |
| MT1X (metallothionein 1X) | SID315450059 | 3.03 | active |
| MT1X (metallothionein 1X) | SID315450059 | -0.92 | inactive |
| PIK3R6 (phosphoinositide-3-kinase regulatory subunit 6) | SID315462300 | -0.26 | inactive |
| PIK3R6 (phosphoinositide-3-kinase regulatory subunit 6) | SID315462300 | 0.77 | inactive |
| PIK3R6 (phosphoinositide-3-kinase regulatory subunit 6) | SID315462300 | 0.23 | inactive |
| PIK3R6 (phosphoinositide-3-kinase regulatory subunit 6) | SID315462300 | -0.74 | inactive |
| CCDC28B (coiled-coil domain containing 28B) | SID315459223 | -0.1 | inactive |
| CCDC28B (coiled-coil domain containing 28B) | SID315459223 | -1.5 | inactive |
| CCDC28B (coiled-coil domain containing 28B) | SID315459223 | -1.32 | inactive |
| CCDC28B (coiled-coil domain containing 28B) | SID315459223 | -1.31 | inactive |
| CCDC28B (coiled-coil domain containing 28B) | SID315459223 | 1.25 | inactive |
| CCDC28B (coiled-coil domain containing 28B) | SID315459223 | 0.65 | inactive |
| CCDC28B (coiled-coil domain containing 28B) | SID315459223 | 1.73 | inactive |
| CCDC28B (coiled-coil domain containing 28B) | SID315459223 | 1.76 | inactive |
| EMP3 (epithelial membrane protein 3 (MAM blood group)) | SID315448503 | -0.43 | inactive |
| EMP3 (epithelial membrane protein 3 (MAM blood group)) | SID315448503 | 0.81 | inactive |
| EMP3 (epithelial membrane protein 3 (MAM blood group)) | SID315448503 | 0.59 | inactive |
| EMP3 (epithelial membrane protein 3 (MAM blood group)) | SID315448503 | 0.67 | inactive |
